According to patent publication US20040097502A1, “Pyrazoles as tgf inhibitors” (priority 2001, published 2004):
Some results were stated once for a whole list of compounds, not compound by compound. For at least one compound, name, drawing or mass did not settle the structure.

These compounds were tested on TGF-β signaling (PAI-1 promoter linked to firefly luciferase in HepG2 cells) (assay: Assay 1: PAI-1 promoter luciferase reporter assay in HepG2 cells after exposure to TGF-β). Details: 1 ng/mL rhTGFβ-1, read-out: IC50 value in Assay 1 (inhibition of TGF-β induced firefly luciferase activity).
Assay type: cell-based
Description: The assay was performed in HepG2 cells stably transfected with the PAI-1 promoter (known to be a strong TGF-β responsive promoter) linked to a luciferase (firefly) reporter gene. The compounds were selected on their ability to inhibit luciferase activity after exposure to TGF-β. In addition cells were transfected with a second luciferase (Renilla) gene which was not driven by a TGF-β responsive promoter and was used as a toxicity control.
(96 well-)microplates are seeded, using a multidrop apparatus, with the stably transfected cell line at a concentration of 35000 cells per well in 200 μl of serum-containing medium. These plates are placed in a cell incubator.
18 to 24 hours later (Day 2), cell-incubation procedure is launched. […] Each well contains only one candidate compound and its effect on the PAI-1 promoter is monitored.
Columns 11 and 12 are employed as controls. […] Column 11 is used to determine the ‘reference TGF-β induced firefly luciferase value’ against which values measured in the test wells (to quantify inhibitory activity) may be compared. […]
12 to 18 hours later (day 3), the luciferase quantification procedure is launched. […] Following agitation (15 to 30 mins), luciferase activities of the plates are read in a dual-injector luminometer (BMG lumistar). […]

SMILES | IC50 [µM]
c1ccc(Nc2cc(-c3c[nH]nc3-c3ccccn3)ccn2)cc1 [Example 2] | ≤ 5

The compounds below were run against T1, kinase Alk5 receptor (kinase domain, amino acids 162 to 503) (Homo sapiens, UniProt P36897) (assay: Assay 2: Alk5 kinase domain autophosphorylation assay). Details: 3 μM ATP, 15 minutes at 37° C.
T1 construct: The protein (amino acids 162 to 503) was 6-His tagged in C-terminus; 6-His (C); made in house; host or cells: baculovirus/Sf9 cells
T1 sequence (P36897 162-503): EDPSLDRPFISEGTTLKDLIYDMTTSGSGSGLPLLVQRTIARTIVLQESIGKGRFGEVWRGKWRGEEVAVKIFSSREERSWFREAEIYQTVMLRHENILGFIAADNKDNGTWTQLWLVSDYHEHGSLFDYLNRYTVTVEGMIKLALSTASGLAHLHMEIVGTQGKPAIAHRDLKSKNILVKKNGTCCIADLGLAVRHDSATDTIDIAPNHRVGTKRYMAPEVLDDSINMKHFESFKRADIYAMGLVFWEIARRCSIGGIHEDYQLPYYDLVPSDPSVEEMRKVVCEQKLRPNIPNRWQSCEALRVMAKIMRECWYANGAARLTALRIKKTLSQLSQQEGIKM
Assay type: biochemical

SMILES | IC50 [µM]
Clc1ccc(Nc2cc(-c3c[nH]nc3-c3ccccn3)ccn2)cc1 [Example 1] | ≤ 1
c1ccc(Nc2cc(-c3c[nH]nc3-c3ccccn3)ccn2)cc1 [Example 2] | ≤ 1
Fc1ccc(Nc2cc(-c3c[nH]nc3-c3ccccn3)ccn2)cc1 [Example 3] | ≤ 1
c1ccc(-c2n[nH]cc2-c2ccnc(NCc3ccco3)c2)nc1 [Example 4] | ≤ 1
CS(=O)(=O)c1cccc(Nc2cc(-c3c[nH]nc3-c3ccccn3)ccn2)c1 [Example 5] | ≤ 1
N#Cc1cccc(Nc2cc(-c3c[nH]nc3-c3ccccn3)ccn2)c1 [Example 6] | ≤ 1
COc1cc(Nc2cc(-c3c[nH]nc3-c3ccccn3)ccn2)ccc1C#N [Example 7] | ≤ 1
c1ccc(-c2n[nH]cc2-c2ccnc(Nc3cccc(OCCN4CCCCC4)c3)c2)nc1 [Example 8] | ≤ 1
c1ccc(-c2n[nH]cc2-c2ccnc(Nc3cccc(OCCN4CCCC4)c3)c2)nc1 [Example 9] | ≤ 1
Clc1cccc(Nc2cc(-c3c[nH]nc3-c3ccccn3)ccn2)c1 [Example 10] | ≤ 1
Cc1cccc(Nc2cc(-c3c[nH]nc3-c3ccccn3)ccn2)c1 [Example 11, [4-(3-Pyridin-2-yl-1H-pyrazol-4-yl)-pyridin-2-yl]-m-tolyl-amine] | ≤ 1
c1ccc(-c2n[nH]cc2-c2ccnc(Nc3ccc(OCCN4CCCC4)cc3)c2)nc1 [Example 12, [4-(3-Pyridin-2-yl-1H-pyrazol-4-yl)-pyridin-2-yl]-[4-(2-pyrrolidin-1-yl-ethoxy)-phenyl]-amine] | ≤ 1
COc1ccc(Nc2cc(-c3c[nH]nc3-c3ccccn3)ccn2)cc1OC [Example 13, (3,4-Dimethoxy-phenyl)-[4-(3-pyridin-2-yl-1H-pyrazol-4-yl)-pyridin-2-yl]-amine] | ≤ 1
Cc1cc(Nc2cc(-c3c[nH]nc3-c3ccccn3)ccn2)ccc1Cl [Example 14, (4-Chloro-3-methyl-phenyl)-[4-(3-pyridin-2-yl-1H-pyrazol-4-yl)-pyridin-2-yl]-amine] | ≤ 1
N#Cc1cc(Nc2cc(-c3c[nH]nc3-c3ccccn3)ccn2)ccc1Cl [Example 15, 2-Chloro-5-[4-(3-pyridin-2-yl-1H-pyrazol-4-yl)-pyridin-2-ylamino]-benzonitrile] | ≤ 1
Oc1ccc(Nc2cc(-c3c[nH]nc3-c3ccccn3)ccn2)cc1 [Example 16, 4-[4-(3-Pyridin-2-yl-1H-pyrazol-4-yl)-pyridin-2-ylamino]-phenol] | ≤ 1
COc1ccc(Nc2cc(-c3c[nH]nc3-c3ccccn3)ccn2)cc1 [Example 17, (4-Methoxy-phenyl)-[4-(3-pyridin-2-yl-1H-pyrazol-4-yl)-pyridin-2-yl]-amine] | ≤ 1
Cc1ccc(Nc2cc(-c3c[nH]nc3-c3ccccn3)ccn2)cc1 [Example 18, [4-(3-Pyridin-2-yl-1H-pyrazol-4-yl)-pyridin-2-yl]-p-tolyl-amine] | ≤ 1
FC(F)(F)Oc1cccc(Nc2cc(-c3c[nH]nc3-c3ccccn3)ccn2)c1 [Example 19, [4-(3-Pyridin-2-yl-1H-pyrazol-4-yl)-pyridin-2-yl]-(3-trifluoromethoxy-phenyl)-amine] | ≤ 1
Cc1ccc(Nc2cc(-c3c[nH]nc3-c3ccccn3)ccn2)cc1C [Example 20, (3,4-Dimethyl-phenyl)-[4-(3-pyridin-2-yl-1H-pyrazol-4-yl)-pyridin-2-yl]-amine] | ≤ 1
FC(F)(F)c1ccc(Nc2cc(-c3c[nH]nc3-c3ccccn3)ccn2)cc1 [Example 21, [4-(3-Pyridin-2-yl-1H-pyrazol-4-yl)-pyridin-2-yl]-(4-trifluoromethyl-phenyl)-amine] | ≤ 1
CC(C)Oc1cccc(Nc2cc(-c3c[nH]nc3-c3ccccn3)ccn2)c1 [Example 22, (3-Isopropoxy-phenyl)-[4-(3-pyridin-2-yl-1H-pyrazol-4-yl)-pyridin-2-yl]-amine] | ≤ 1
CS(=O)(=O)c1ccc(Nc2cc(-c3c[nH]nc3-c3ccccn3)ccn2)cc1 [Example 23, (4-Methanesulfonyl-phenyl)-[4-(3-pyridin-2-yl-1H-pyrazol-4-yl)-pyridin-2-yl]-amine] | ≤ 1
COc1cc(Nc2cc(-c3c[nH]nc3-c3cccc(C)n3)ccn2)ccc1C#N [Example 24, 2-Methoxy-4-{4-[3-(6-methyl-pyridin-2-yl)-1H-pyrazol-4-yl]-pyridin-2-ylamino}-benzonitrile] | ≤ 1
O=C(c1ccc(Nc2cc(-c3c[nH]nc3-c3ccccn3)ccn2)cc1)N1CCOCC1 [Example 25, Morpholin-4-yl-{4-[4-(3-pyridin-2-yl-1H-pyrazol-4-yl)-pyridin-2-ylamino]-phenyl}methanone] | ≤ 1
CN1CCN(C(=O)c2ccc(Nc3cc(-c4c[nH]nc4-c4ccccn4)ccn3)cc2)CC1 [Example 26, (4-Methyl-piperazin-1-yl)-{4-[4-(3-pyridin-2-yl-1H-pyrazol-4-yl)-pyridin-2-ylamino]-phenyl}-methanone] | ≤ 1
c1ccc(-c2n[nH]cc2-c2ccnc(Nc3ccc(OCCN4CCCCC4)cc3)c2)nc1 [Example 27, [4-(2-Piperidin-1-yl-ethoxy)phenyl]-[4-(3-pyridin-2-yl-1H-pyrazol-4-yl)-pyridin-2-yl]-amine] | ≤ 1
Cn1ccnc1COc1cccc(Nc2cc(-c3c[nH]nc3-c3ccccn3)ccn2)c1 [Example 28, [3-(1-Methyl-1H-imidazol-2-ylmethoxy)-phenyl]-[4-(3-pyridin-2-yl-1H-pyrazol-4-yl)-pyridin-2-yl]-amine] | ≤ 1
